Source: patent US8637484B2, “Modulation of growth hormone receptor expression and insulin-like growth factor expression” (Antisense Therapeutic Limited, priority 2003, dated 2014)
Some entries share one result that the patent states for a list of compounds. In the oligonucleotide strings, read from the 5' end, every base follows the letter of its sugar. An asterisk marks phosphorothioate; unmarked linkages are phosphodiester. Other units and linkages are bracketed, terminal groups are in braces. A string of capitals states the bases alone. e = 2'-O-(2-methoxyethyl) (MOE); [5mC] = 5-methylcytosine; d = 2'-deoxy (DNA)

Legend:
[1] = tested on: mouse growth hormone receptor mRNA; test: Inhibition of mouse growth hormone receptor mRNA levels in b.END cells, quantitative real-time PCR; format: cell-based; set-up: concentration or dose not given beside the values; conditions: averages from three experiments
Method: (§1) The mouse brain endothelial cell line b.END was obtained from Dr. Werner Risau at the Max Plank Instititute (Bad Nauheim, Germany). b.END cells were routinely cultured in DMEM, high glucose (Gibco/Life Technologies, Gaithersburg, Md.) supplemented with 10% fetal calf serum (Gibco/Life Technologies, Gaithersburg, Md.). Cells were routinely passaged by trypsinization and dilution when they reached 90% confluence. Cells were seeded into 96-well plates (Falcon-Primaria #3872) at a density of 3000 cells/well for use in RT-PCR analysis.
(§2) When cells reached 65-75% confluency, they were treated with oligonucleotide. For cells grown in 96-well plates, wells were washed once with 100 μL OPTI-MEM™-1 reduced-serum medium (Invitrogen Corporation, Carlsbad, Calif.) and then treated with 130 μL of OPTI-MEM™-1 containing 3.75 μg/mL LIPOFECTIN™ (Invitrogen Corporation, Carlsbad, Calif.) and the desired concentration of oligonucleotide. Cells are treated and data are obtained in triplicate. After 4-7 hours of treatment at 37° C., the medium was replaced with fresh medium. Cells were harvested 16-24 hours after oligonucleotide treatment.
(§3) Total RNA was isolated using an RNEASY 96™ kit and buffers purchased from Qiagen Inc. (Valencia, Calif.) following the manufacturer's recommended procedures. Briefly, for cells grown on 96-well plates, growth medium was removed from the cells and each well was washed with 200 μL cold PBS. 150 μL Buffer RLT was added to each well and the plate vigorously agitated for 20 seconds. 150 μL of 70% ethanol was then added to each well and the contents mixed by pipetting three times up and down. The samples were then transferred to the RNEASY 96™ well plate attached to a QIAVAC™ manifold fitted with a waste collection tray and attached to a vacuum source. Vacuum was applied for 1 minute. 500 μL of Buffer RW1 was added to each well of the RNEASY 96™ plate and incubated for 15 minutes and the vacuum was again applied for 1 minute. An additional 500 μL of Buffer RW1 was added to each well of the RNEASY 96™ plate and the vacuum was applied for 2 minutes. 1 mL of Buffer RPE was then added to each well of the RNEASY 96™ plate and the vacuum applied for a period of 90 seconds. The Buffer RPE wash was then repeated and the vacuum was applied for an additional 3 minutes. The plate was then removed from the QIAVAC™ manifold and blotted dry on paper towels. The plate was then re-attached to the QIAVAC™ manifold fitted with a collection tube rack containing 1.2 mL collection tubes. RNA was then eluted by pipetting 140 μL of RNAse free water into each well, incubating 1 minute, and then applying the vacuum for 3 minutes.
(§4) Quantitation of growth hormone receptor mRNA levels was accomplished by real-time quantitative PCR using the ABI PRISM™ 7600, 7700, or 7900 Sequence Detection System (PE-Applied Biosystems, Foster City, Calif.) according to manufacturer's instructions. This is a closed-tube, non-gel-based, fluorescence detection system which allows high-throughput quantitation of polymerase chain reaction (PCR) products in real-time. As opposed to standard PCR in which amplification products are quantitated after the PCR is completed, products in real-time quantitative PCR are quantitated as they accumulate. This is accomplished by including in the PCR reaction an oligonucleotide probe that anneals specifically between the forward and reverse PCR primers, and contains two fluorescent dyes. A reporter dye (e.g., FAM or JOE, obtained from either PE-Applied Biosystems, Foster City, Calif., Operon Technologies Inc., Alameda, Calif. or Integrated DNA Technologies Inc., Coralville, Iowa) is attached to the 5′ end of the probe and a quencher dye (e.g., TAMRA, obtained from either PE-Applied Biosystems, Foster City, Calif., Operon Technologies Inc., Alameda, Calif. or Integrated DNA Technologies Inc., Coralville, Iowa) is attached to the 3′ end of the probe. […]

[2] = tested on: human growth hormone receptor mRNA; test: Inhibition of human growth hormone receptor mRNA levels in MCF7 cells, quantitative real-time PCR; format: cell-based; set-up: concentration or dose not given beside the values; conditions: averages from three experiments
Method: as §1, with “human breast carcinoma” for “mouse brain endothelial”, “MCF-7” for “b.END”, “from” for “from Dr. Werner Risau at”, “American Type Culture Collection (Manassas, Va.). MCF-7” for “Max Plank Instititute (Bad Nauheim, Germany). b.END”, “DMEM low” for “DMEM, high”, “7000” for “3000”
as §2, §3
as §4, with “probe. When the probe and dyes are intact, reporter dye emission is quenched by the proximity of the 3′ quencher dye.” for “probe.”

Substance: taaatgttttgcatatccaa (eT*eA*eA*eA*eT*dG*dT*dT*dT*dT*dG*d[5mC]*dA*dT*dA*eT*e[5mC]*e[5mC]*eA*eA; antisense) [ISIS 227497]
- % INHIB [1]: at least 50%

Substance: acaaagatccatacctgaga (eA*e[5mC]*eA*eA*eA*dG*dA*dT*d[5mC]*d[5mC]*dA*dT*dA*d[5mC]*d[5mC]*eT*eG*eA*eG*eA; antisense) [ISIS 227446]
- % INHIB [1]: at least 50%

Substance: gtccagttgaggccaatggg (eG*eT*e[5mC]*e[5mC]*eA*dG*dT*dT*dG*dA*dG*dG*d[5mC]*d[5mC]*dA*eA*eT*eG*eG*eG; antisense) [ISIS 227456]
- % INHIB [1]: at least 50%

Substance: tacctgagacctcggagttt (eT*eA*e[5mC]*e[5mC]*eT*dG*dA*dG*dA*d[5mC]*d[5mC]*dT*d[5mC]*dG*dG*eA*eG*eT*eT*eT; antisense) [ISIS 227445]
- % INHIB [1]: at least 50%

Substance: atggctgcgcctgcttggca (eA*eT*eG*eG*e[5mC]*dT*dG*d[5mC]*dG*d[5mC]*d[5mC]*dT*dG*d[5mC]*dT*eT*eG*eG*e[5mC]*eA; antisense) [ISIS 227444]
- % INHIB [1]: at least 50%

Substance: cttcactaaccttgcagctt (e[5mC]*eT*eT*e[5mC]*eA*d[5mC]*dT*dA*dA*d[5mC]*d[5mC]*dT*dT*dG*d[5mC]*eA*eG*e[5mC]*eT*eT; antisense) [ISIS 227517]
- % INHIB [1]: at least 50%

Substance: tgctactccaaatattccaa (eT*eG*e[5mC]*eT*eA*d[5mC]*dT*d[5mC]*d[5mC]*dA*dA*dA*dT*dA*dT*eT*e[5mC]*e[5mC]*eA*eA; antisense) [ISIS 227461]
- % INHIB [1]: at least 50%

Substance: gctggtgtagcctcacttcc (eG*e[5mC]*eT*eG*eG*dT*dG*dT*dA*dG*d[5mC]*d[5mC]*dT*d[5mC]*dA*e[5mC]*eT*eT*e[5mC]*e[5mC]; antisense) [ISIS 227447]
- % INHIB [1]: at least 50%

Substance: gaattatccatcccttcaga (eG*eA*eA*eT*eT*dA*dT*d[5mC]*d[5mC]*dA*dT*d[5mC]*d[5mC]*d[5mC]*dT*eT*e[5mC]*eA*eG*eA; antisense) [ISIS 227457]
- % INHIB [1]: at least 50%

Substance: tagggtccatcattttccat (eT*eA*eG*eG*eG*dT*d[5mC]*d[5mC]*dA*dT*d[5mC]*dA*dT*dT*dT*eT*e[5mC]*e[5mC]*eA*eT; antisense) [ISIS 272314]
- % INHIB [2]: at least 45%

Substance: atgtaaatgtcctcttggtt (eA*eT*eG*eT*eA*dA*dA*dT*dG*dT*d[5mC]*d[5mC]*dT*d[5mC]*dT*eT*eG*eG*eT*eT; antisense) [ISIS 227480]
- % INHIB [2]: at least 45%

Substance: attgcgtggtgcttcccatc (eA*eT*eT*eG*e[5mC]*dG*dT*dG*dG*dT*dG*d[5mC]*dT*dT*d[5mC]*e[5mC]*e[5mC]*eA*eT*e[5mC]; antisense) [ISIS 272313]
- % INHIB [2]: at least 45%

Substance: catagcagcaaagtagcaga (e[5mC]*eA*eT*eA*eG*d[5mC]*dA*dG*d[5mC]*dA*dA*dA*dG*dT*dA*eG*e[5mC]*eA*eG*eA; antisense) [ISIS 227500]
- % INHIB [2]: at least 45%

Substance: caatcactgctactaaacag (e[5mC]*eA*eA*eT*e[5mC]*dA*d[5mC]*dT*dG*d[5mC]*dT*dA*d[5mC]*dT*dA*eA*eA*e[5mC]*eA*eG; antisense) [ISIS 272336]
- % INHIB [2]: at least 45%

Substance: tgttcagttggtctgtgctc (eT*eG*eT*eT*e[5mC]*dA*dG*dT*dT*dG*dG*dT*d[5mC]*dT*dG*eT*eG*e[5mC]*eT*e[5mC]; antisense) [ISIS 227489]
- % INHIB [2]: at least 45%

Substance: gttttacatatccaaactat (eG*eT*eT*eT*eT*dA*d[5mC]*dA*dT*dA*dT*d[5mC]*d[5mC]*dA*dA*eA*e[5mC]*eT*eA*eT; antisense) [ISIS 272339]
- % INHIB [2]: at least 45%

Substance: ctggctcatcaatatctagc (e[5mC]*eT*eG*eG*e[5mC]*dT*d[5mC]*dA*dT*d[5mC]*dA*dA*dT*dA*dT*e[5mC]*eT*eA*eG*e[5mC]; antisense) [ISIS 272322]
- % INHIB [2]: at least 45%

Substance: tggtaaggctttctgtggtg (eT*eG*eG*eT*eA*dA*dG*dG*d[5mC]*dT*dT*dT*d[5mC]*dT*dG*eT*eG*eG*eT*eG; antisense) [ISIS 227484]
- % INHIB [2]: at least 45%

Substance: ctctttgtcaggcaagggca (e[5mC]*eT*e[5mC]*eT*eT*dT*dG*dT*d[5mC]*dA*dG*dG*d[5mC]*dA*dA*eG*eG*eG*e[5mC]*eA; antisense) [ISIS 272332]
- % INHIB [2]: at least 45%

Substance: tagtgagaaagaaagtttct (eT*eA*eG*eT*eG*dA*dG*dA*dA*dA*dG*dA*dA*dA*dG*eT*eT*eT*e[5mC]*eT; antisense) [ISIS 272342]
- % INHIB [2]: at least 45%

Substance: acactcaattctagcttttc (eA*e[5mC]*eA*e[5mC]*eT*d[5mC]*dA*dA*dT*dT*d[5mC]*dT*dA*dG*d[5mC]*eT*eT*eT*eT*e[5mC]; antisense) [ISIS 272344]
- % INHIB [2]: at least 45%

Substance: aacccaagagtcatcactgt (eA*eA*e[5mC]*e[5mC]*e[5mC]*dA*dA*dG*dA*dG*dT*d[5mC]*dA*dT*d[5mC]*eA*e[5mC]*eT*eG*eT; antisense) [ISIS 272321]
- % INHIB [2]: at least 45%

Substance: tttcatccactgtaccacca (eT*eT*eT*e[5mC]*eA*dT*d[5mC]*d[5mC]*dA*d[5mC]*dT*dG*dT*dA*d[5mC]*e[5mC]*eA*e[5mC]*e[5mC]*eA; antisense) [ISIS 272310]
- % INHIB [2]: at least 45%

Substance: aatgctctcaagaatgatgt (eA*eA*eT*eG*e[5mC]*dT*d[5mC]*dT*d[5mC]*dA*dA*dG*dA*dA*dT*eG*eA*eT*eG*eT; antisense) [ISIS 272343]
- % INHIB [2]: at least 45%

Substance: agcccaaatattccaaagat (eA*eG*e[5mC]*e[5mC]*e[5mC]*dA*dA*dA*dT*dA*dT*dT*d[5mC]*d[5mC]*dA*eA*eA*eG*eA*eT; antisense) [ISIS 272317]
- % INHIB [2]: at least 45%

Substance: gattgaggtatttagctatt (eG*eA*eT*eT*eG*dA*dG*dG*dT*dA*dT*dT*dT*dA*dG*e[5mC]*eT*eA*eT*eT; antisense) [ISIS 227502]
- % INHIB [2]: at least 45%

Substance: atggaggctggaggttcaaa (eA*eT*eG*eG*eA*dG*dG*d[5mC]*dT*dG*dG*dA*dG*dG*dT*eT*e[5mC]*eA*eA*eA; antisense) [ISIS 272356]
- % INHIB [2]: at least 45%

Substance: cagtcgcattgagtatgagg (e[5mC]*eA*eG*eT*e[5mC]*dG*d[5mC]*dA*dT*dT*dG*dA*dG*dT*dA*eT*eG*eA*eG*eG; antisense) [ISIS 272331]
- % INHIB [2]: at least 45%
